# Source: US20230399374A1 (PURDUE RESEARCH FOUNDATION, priority 2020, published 2023)
# Assay: general procedure: Fmoc solid-phase peptide synthesis; Wang resin (0.6 mmol/g); 2-chlorotrityl resin for branched ligands and D10-Cys; HBTU/NMM, then double coupling with PyBOP/NMM
# Details: whole synthesis
substance,measurement,setting,value
AVSEHQLLHDKGKSIQDLRRRELLEKLLxKLHTAEIRATSEVSPNSeeeeeeeeeeeeeeeeeeee,final HPLC purity,"analytical LC-MS (1220 LC; 6130 MS, Agilent), HPLC and mass spectrometry",94%
same,isolated yield,overall,19%

# Where a sequence shows no end group, the ends are not given.
